Consider one substance from paper PMC3078934.

By UniProt entry, the sequences of proteins in these tests, tags left out. Residues count along the entry.
UniProt P35968, residues 20-1356: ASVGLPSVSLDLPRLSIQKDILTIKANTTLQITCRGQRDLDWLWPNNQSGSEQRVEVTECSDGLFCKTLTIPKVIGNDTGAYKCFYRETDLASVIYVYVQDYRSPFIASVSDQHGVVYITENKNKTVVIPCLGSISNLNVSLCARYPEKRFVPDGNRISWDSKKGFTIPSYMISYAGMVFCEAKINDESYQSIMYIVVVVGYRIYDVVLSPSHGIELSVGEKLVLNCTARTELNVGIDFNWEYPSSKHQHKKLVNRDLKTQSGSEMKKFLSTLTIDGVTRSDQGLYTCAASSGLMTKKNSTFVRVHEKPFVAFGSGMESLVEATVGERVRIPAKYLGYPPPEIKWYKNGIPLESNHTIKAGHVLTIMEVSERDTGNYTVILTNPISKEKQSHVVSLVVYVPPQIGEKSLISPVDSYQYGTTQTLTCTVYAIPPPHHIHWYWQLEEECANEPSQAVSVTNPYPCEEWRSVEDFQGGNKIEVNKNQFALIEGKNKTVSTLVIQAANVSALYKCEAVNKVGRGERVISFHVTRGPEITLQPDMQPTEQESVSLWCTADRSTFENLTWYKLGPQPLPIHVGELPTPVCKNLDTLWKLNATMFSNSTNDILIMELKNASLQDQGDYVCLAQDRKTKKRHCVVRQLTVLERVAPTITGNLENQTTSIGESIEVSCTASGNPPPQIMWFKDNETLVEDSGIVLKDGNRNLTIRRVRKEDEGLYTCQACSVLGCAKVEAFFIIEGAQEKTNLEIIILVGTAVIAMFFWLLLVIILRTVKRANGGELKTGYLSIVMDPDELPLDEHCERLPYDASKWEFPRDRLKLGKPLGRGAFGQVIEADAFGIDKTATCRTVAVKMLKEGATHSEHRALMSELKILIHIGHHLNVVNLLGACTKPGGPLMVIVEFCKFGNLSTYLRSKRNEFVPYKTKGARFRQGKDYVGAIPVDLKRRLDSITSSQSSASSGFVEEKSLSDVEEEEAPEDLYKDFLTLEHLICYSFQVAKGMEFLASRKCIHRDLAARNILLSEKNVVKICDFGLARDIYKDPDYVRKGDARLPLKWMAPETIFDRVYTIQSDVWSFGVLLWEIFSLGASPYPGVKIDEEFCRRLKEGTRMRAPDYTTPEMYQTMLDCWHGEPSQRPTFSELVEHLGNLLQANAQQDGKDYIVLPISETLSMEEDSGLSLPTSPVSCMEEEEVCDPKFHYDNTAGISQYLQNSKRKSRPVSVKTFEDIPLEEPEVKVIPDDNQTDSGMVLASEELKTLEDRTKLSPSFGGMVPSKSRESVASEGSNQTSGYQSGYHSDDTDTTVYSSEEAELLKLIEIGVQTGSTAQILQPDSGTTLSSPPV
UniProt P48357, residues 22-1165: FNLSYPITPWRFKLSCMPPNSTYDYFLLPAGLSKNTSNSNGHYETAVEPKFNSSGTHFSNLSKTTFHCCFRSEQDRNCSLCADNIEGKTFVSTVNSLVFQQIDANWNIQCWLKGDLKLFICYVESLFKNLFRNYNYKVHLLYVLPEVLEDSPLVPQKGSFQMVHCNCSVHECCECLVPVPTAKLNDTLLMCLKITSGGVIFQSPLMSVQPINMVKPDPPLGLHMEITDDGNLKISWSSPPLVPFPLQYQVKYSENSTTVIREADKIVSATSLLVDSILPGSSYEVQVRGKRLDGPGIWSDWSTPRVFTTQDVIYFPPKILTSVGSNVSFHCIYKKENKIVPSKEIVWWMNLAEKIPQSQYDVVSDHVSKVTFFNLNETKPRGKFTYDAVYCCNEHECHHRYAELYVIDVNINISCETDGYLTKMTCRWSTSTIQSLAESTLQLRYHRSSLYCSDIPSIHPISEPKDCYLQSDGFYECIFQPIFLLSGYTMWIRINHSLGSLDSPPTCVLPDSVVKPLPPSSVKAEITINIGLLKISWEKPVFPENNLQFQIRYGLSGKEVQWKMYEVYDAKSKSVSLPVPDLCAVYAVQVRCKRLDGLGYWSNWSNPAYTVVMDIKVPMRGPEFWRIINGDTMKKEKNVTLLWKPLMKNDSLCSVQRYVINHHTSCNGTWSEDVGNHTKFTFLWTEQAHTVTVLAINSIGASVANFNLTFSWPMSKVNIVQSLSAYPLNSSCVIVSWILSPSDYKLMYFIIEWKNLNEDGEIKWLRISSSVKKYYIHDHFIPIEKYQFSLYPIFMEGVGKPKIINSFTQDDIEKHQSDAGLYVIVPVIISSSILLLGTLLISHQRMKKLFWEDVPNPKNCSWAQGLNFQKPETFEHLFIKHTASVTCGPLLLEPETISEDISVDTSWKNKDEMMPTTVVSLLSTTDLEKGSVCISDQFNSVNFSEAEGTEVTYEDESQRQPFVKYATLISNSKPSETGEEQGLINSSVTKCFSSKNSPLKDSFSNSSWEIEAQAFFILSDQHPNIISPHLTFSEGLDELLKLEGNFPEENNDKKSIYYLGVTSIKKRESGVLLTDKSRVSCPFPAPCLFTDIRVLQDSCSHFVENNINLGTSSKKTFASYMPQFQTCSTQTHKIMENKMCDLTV

No constants are given. Whether binding was seen depends on the method and setting. In cells and extracts the contact can be indirect.

This assay has as its target vascular endothelial growth factor receptor 2 (VEGFR2) (human (endogenous in HUVEC)) (UniProt P35968). Nature of the assay: co-IP; VEGFR2 immunoprecipitated (VEGFR2 antibody, protein A-sepharose, 4°C overnight) from lysates (1% Triton, pH 7.4) of serum-starved HUVEC treated 5 min with vehicle, leptin (1 ng/mL) or VEGF (25 ng/mL); blots probed for ObRb.

With “leptin receptor, long form (ObRb) (from UniProt P48357-1 22-1165)”, the binding entry is “no binding”.
